For one molecule, binding results are on record in publication PMC3411842.

Protein sequences, listed by entry. Tags and fused reporters are not part of them. Residues count along the entry.
UniProt P70452, residues 1-274: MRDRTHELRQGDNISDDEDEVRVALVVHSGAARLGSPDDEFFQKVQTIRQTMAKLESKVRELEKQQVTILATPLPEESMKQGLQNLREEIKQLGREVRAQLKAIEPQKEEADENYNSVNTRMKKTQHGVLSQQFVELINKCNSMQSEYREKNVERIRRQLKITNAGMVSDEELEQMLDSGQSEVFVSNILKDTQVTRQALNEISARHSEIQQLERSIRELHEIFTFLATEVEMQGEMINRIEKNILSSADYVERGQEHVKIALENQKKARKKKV

These are yes or no findings as the source states them, for the method shown. In cells and extracts the contact can be indirect. Some binding calls cover weakened binding; strength is not graded here. Sequences can lack the tags named with a protein.

For assay [1], the target named is GST-tagged syntaxin 4 (cytoplasmic portion) (UniProt P70452). The assay is described as follows: pull-down; purified GST-syntaxin 4 on glutathione sepharose beads mixed with RIPA lysate of CHO cells expressing Flag-Synip WT or ΔWW, cells serum starved 4 h, with or without 100 nM insulin for 15 min; 2 h at 4°C; anti-Flag immunoblot; only the target purified. On the technique in general: Immunoblotting shows a protein as a band on a membrane.

The target is the same in assay [2]. In words: pull-down; purified GST-syntaxin 4 on glutathione sepharose beads mixed with RIPA lysate of 3T3L1 adipocytes expressing Flag-Synip WT or ΔWW, basal state (serum starved 4 h); 2 h at 4°C; anti-Flag immunoblot, band densities quantified (n = 3); only the target purified.

B1: Flag-tagged Synip WT (syntaxin 4 interacting protein) (protein, UniProt Q9WV89 1-557)
chain: MSDGTASARSSSPLDRDPAFRVITVTKETGLGLKILGGINRNEGPLVYIHEVIPGGDCYKDGRLKPGDQLVSINKESMIGVSFEEAKSIITRAKLRSESPWEIAFIRQKSYCGHPGNICCPSPQVSEDCGPQTSTFTLLSSPSETLLPKTSSTPQTQDSTFPSCKAIQTKPEHDKTEHSPITSLDNSPADTSNADIAPAWTDDDSGPQGKISLNPSVRLKAEKLEMALNYLGIQPTKEQREALREQVQADSKGTVSFGDFVQVARSLFCLQLDEVNVGVHEIPSILDSQLLPCDSLEADEVGKLRQERNAALEERNVLKEKLLESEKHRKQLIEELQNVKQEAKAVAEETRALRSRIHLAEAAQRQAHGMEMDYEEVIRLLEAEVSELKAQLADYSDQNKESVQDLRKRVTVLDCQLRKSEMARKAFKASTERLLGFIEAIQEVLLDSSAPLSTLSERRAVLASQTSLPLLARNGRSFPATLLLESKELVRSVRAILDMDCLPYGWEEAYTADGIKYFINHVTQTTSWIHPVMSALNLSCAEESEEDCPRELTDPKS
Turning to B1, the binding entry in assay [1] and in assay [2] was “binds” each time.
